Data on 1 molecule can be found in doi:10.1101/2020.07.01.179515.

The target of this experiment is T1, Rps2-Flag (RPS2/uS5, endogenously C-terminally Flag-tagged) (S. cerevisiae) (UniProt P25443).
T1 sequence: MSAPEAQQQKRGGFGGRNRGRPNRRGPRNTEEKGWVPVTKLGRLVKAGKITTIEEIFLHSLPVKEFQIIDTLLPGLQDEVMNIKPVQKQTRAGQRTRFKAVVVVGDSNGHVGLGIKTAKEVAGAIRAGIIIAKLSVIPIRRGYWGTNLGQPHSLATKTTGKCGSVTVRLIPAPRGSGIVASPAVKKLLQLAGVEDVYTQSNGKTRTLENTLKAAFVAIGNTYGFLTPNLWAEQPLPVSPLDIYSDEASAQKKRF
As to the kind of experiment: co-IP.

Results are given in words; binding and its absence hold for the method and conditions named. Binding seen in cells or lysates may run through a third protein. Some binding calls cover weakened binding; strength is not graded here. Where a sequence is shown, tags or fusion partners need not be part of it.

B1: Rps5/uS7 (protein, UniProt P26783 1-225)
chain: MSDTEAPVEVQEDFEVVEEFTPVVLATPIPEEVQQAQTEIKLFNKWSFEEVEVKDASLVDYVQVRQPIFVAHTAGRYANKRFRKAQCPIIERLTNSLMMNGRNNGKKLKAVRIIKHTLDIINVLTDQNPIQVVVDAITNTGPREDTTRVGGGGAARRQAVDVSPLRRVNQAIALLTIGAREAAFRNIKTIAETLAEELINAAKGSSTSYAIKKKDELERVAKSNR
For B1, the binding entry is on record as “binds”.
